Measurements as given in US20170189504A1, “NOVEL PEPTIDES AND COMBINATION OF PEPTIDES FOR USE IN IMMUNOTHERAPY AGAINST VARIOUS CANCERS” (immatics biotechnologies GmbH, priority 2015, published 2017).
For some assays here: Expression values are those of the mRNA of the gene that encodes the peptide; a gene is named only where it was looked up.

Experiments:
source genes (mRNA) [1] = experiment: Gene and exon expression of source genes, TCGA tumor samples compared with normal tissue samples (Lonsdale, 2013) (Table 17); design: species or system human
source genes (mRNA) [2] = experiment: Expression profiling of source genes by in-house RNASeq of tumor and normal tissues (Table 18, FIG. 2); design: species or system human; key: very highly over-expressed in tumors compared to a panel of normal tissues (+++); highly over-expressed in tumors compared to a panel of normal tissues (++); over-expressed in tumors compared to a panel of normal tissues (+); details: source gene of peptide; for Expression score BRCA: BRCA tumors vs panel of normal tissues; for Expression score OSCAR: esophageal cancer incl. gastric-esophageal junction (N = 11) vs panel of normal tissues; for Expression score GBC_CCC: gallbladder adenocarcinoma and cholangiocarcinoma (N = 3) vs panel of normal tissues; for Expression score NSCLC: non-small cell lung cancer (N = 11) vs panel of normal tissues; for Expression score PC: pancreatic cancer (N = 26) vs panel of normal tissues; for Expression score CLL: chronic lymphocytic leukemia (N = 10) vs panel of normal tissues
HLA-A*02 = experiment: Identification and relative LC-MS quantitation of HLA-A*02-presented tumor-associated peptides on tissue samples (presentation profiles, Tables 13A, 13B, 15, FIG. 1); design: species or system human; key to Presentation score NHL / Presentation score CLL / Presentation score BRCA / Presentation score AML / Presentation score GB / Presentation score NSCLC / Presentation score GBC_CCC / Presentation score UEC / Presentation score MEL / Presentation score OSCAR / Presentation score GC / Presentation score UBC / Presentation score OC / Presentation score RCC / Presentation score CRC / Presentation score PCA / Presentation score HCC / Presentation score PC / Presentation score SCLC: specifically presented on tumors (++++); very highly over-presented on tumors compared to a panel of normal tissues (+++); highly over-presented on tumors compared to a panel of normal tissues (++); over-presented on tumors compared to a panel of normal tissues (+); details: for Presentation score NHL: non-Hodgkin lymphoma (N = 18) vs panel of normal tissues (N = 262); for Presentation score OC: ovarian cancer (N = 20) vs panel of normal tissues (N = 262); for Peptide Presentation on cancer entities: HLA-A*02-binding tumor-associated peptides; for Presentation score NSCLC: non-small cell lung cancer (N = 90) vs panel of normal tissues (N = 262)
[3] = Table 13A, cancer entities on which the peptide was found presented

291: peptide found in TOP2A (gene looked up) (KLDETGNSL; listed as Homo sapiens) [compound 291]
Over-expression category of source gene (target coverage), BLCA (source genes (mRNA) [1]; BLCA = Bladder urothelial carcinoma (N = 408), same cutoff): B (>= 20% of tumors above the cutoff, but <50%) | Over-expression category of source gene (target coverage), BRCA (source genes (mRNA) [1]; BRCA = Breast cancer (N = 1104), tumors more than 2-fold above highest 75% percentile of normal tissues): A (>=50% of tumors above the cutoff) | Over-expression category of source gene (target coverage), CHOL (source genes (mRNA) [1]; CHOL = Cholangiocarcinoma (N = 36), same cutoff): C (>=5% of tumors above the cutoff, but <20%) | Over-expression category of source gene (target coverage), COAD (source genes (mRNA) [1]; COAD = Colon and rectal adenocarcinoma (N = 462), same cutoff): A (>=50% of tumors above the cutoff) | Over-expression category of source gene (target coverage), DLBC (source genes (mRNA) [1]; DLBC = Lymphoid neoplasm diffuse large B-cell lymphoma (N = 48), same cutoff): B (>= 20% of tumors above the cutoff, but <50%) | Over-expression category of source gene (target coverage), ESCA (source genes (mRNA) [1]; ESCA = Esophageal cancer (N = 185), same cutoff): A (>=50% of tumors above the cutoff) | Over-expression category of source gene (target coverage), GBM (source genes (mRNA) [1]; GBM = Glioblastoma multiforme (N = 169), same cutoff): B (>= 20% of tumors above the cutoff, but <50%) | Over-expression category of source gene (target coverage), LAML (source genes (mRNA) [1]; LAML = Acute Myeloid Leukemia (N = 173), same cutoff): A (>=50% of tumors above the cutoff) | Over-expression category of source gene (target coverage), LGG (source genes (mRNA) [1]; LGG = Lower grade glioma (N = 534), same cutoff): C (>=5% of tumors above the cutoff, but <20%) | Over-expression category of source gene (target coverage), LIHC (source genes (mRNA) [1]; LIHC = Liver hepatocellular carcinoma (N = 374), same cutoff): C (>=5% of tumors above the cutoff, but <20%) | Over-expression category of source gene (target coverage), LUAD (source genes (mRNA) [1]; LUAD = Lung adenocarcinoma (N = 517), same cutoff): B (>= 20% of tumors above the cutoff, but <50%) | Over-expression category of source gene (target coverage), LUSC (source genes (mRNA) [1]; LUSC = Lung squamous cell carcinoma (N = 503), same cutoff): A (>=50% of tumors above the cutoff) | Over-expression category of source gene (target coverage), OV (source genes (mRNA) [1]; OV = Ovarian serous cystadenocarcinoma (N = 309), same cutoff): C (>=5% of tumors above the cutoff, but <20%) | Over-expression category of source gene (target coverage), PAAD (source genes (mRNA) [1]; PAAD = Pancreatic ductal adenocarcinoma (N = 179), same cutoff): C (>=5% of tumors above the cutoff, but <20%) | Over-expression category of source gene (target coverage), READ (source genes (mRNA) [1]; READ = Colon and rectal adenocarcinoma (N = 167), same cutoff): A (>=50% of tumors above the cutoff) | Over-expression category of source gene (target coverage), SKCM (source genes (mRNA) [1]; SKCM = Skin cutaneous melanoma (N = 473), same cutoff): B (>= 20% of tumors above the cutoff, but <50%) | Over-expression category of source gene (target coverage), STAD (source genes (mRNA) [1]; STAD = Stomach adenocarcinoma (N = 415), same cutoff): A (>=50% of tumors above the cutoff) | Over-expression category of source gene (target coverage), UCEC (source genes (mRNA) [1]; UCEC = Uterine corpus endometrial carcinoma (N = 546), same cutoff): B (>= 20% of tumors above the cutoff, but <50%) | Expression score BRCA (source genes (mRNA) [2]): ++ | Expression score AML (source genes (mRNA) [2]; acute myeloid leukemia (N = 11) vs panel of normal tissues): + | Expression score CRC (source genes (mRNA) [2]; colorectal cancer (N = 20) vs panel of normal tissues): ++ | Expression score OSCAR (source genes (mRNA) [2]): +++ | Expression score GBC_CCC (source genes (mRNA) [2]): + | Expression score GC (source genes (mRNA) [2]; gastric cancer (N = 11) vs panel of normal tissues): + | Expression score GB (source genes (mRNA) [2]; glioblastoma (N = 24) vs panel of normal tissues): ++ | Expression score NHL (source genes (mRNA) [2]; non-Hodgkin lymphoma (N = 10) vs panel of normal tissues): +++ | Expression score NSCLC (source genes (mRNA) [2]): +++ | Expression score OC (source genes (mRNA) [2]; ovarian cancer (N = 12) vs panel of normal tissues): ++ | Expression score PC (source genes (mRNA) [2]): + | Expression score SCLC (source genes (mRNA) [2]; small cell lung cancer (N = 10) vs panel of normal tissues): +++ | Expression score UBC (source genes (mRNA) [2]; urinary bladder cancer (N = 10) vs panel of normal tissues): + | Expression score UEC (source genes (mRNA) [2]; uterine cancer (N = 10) vs panel of normal tissues): + | Presentation score AML (HLA-A*02; HLA-A*02 peptides, acute myeloid leukemia (N = 18) vs panel of normal tissues (N = 262)): ++ | Presentation score GB (HLA-A*02; HLA-A*02 peptides, glioblastoma (N = 41) vs panel of normal tissues (N = 262)): + | Presentation score HCC (HLA-A*02; HLA-A*02 peptides, hepatocellular carcinoma (N = 16) vs panel of normal tissues (N = 262)): + | Presentation score MEL (HLA-A*02; HLA-A*02 peptides, melanoma (N = 7) vs panel of normal tissues (N = 262)): +++ | Presentation score NHL (HLA-A*02; HLA-A*02 peptides): ++ | Presentation score OC (HLA-A*02; HLA-A*02 peptides): ++ | Presentation score SCLC (HLA-A*02; HLA-A*02 peptides, small cell lung cancer (N = 19) vs panel of normal tissues (N = 262)): + | Presentation score UEC (HLA-A*02; HLA-A*02 peptides, uterine cancer (N = 15) vs panel of normal tissues (N = 262)): +++ | Peptide Presentation on cancer entities (HLA-A*02; [3]): GB, GC, NSCLC, HCC, CLL, OSCAR, OC, SCLC, UBC, UEC, MEL, RCC, CRC, PC, AML, NHL

15: peptide found in TLR6 (gene looked up) (YLDLSHNQL; listed as Homo sapiens) [compound 15]
Target coverage: over-expression category of source gene, BLCA (source genes (mRNA) [1]; Bladder urothelial carcinoma (N = 408), cutoff more than 2-fold above highest 75% percentile of normal tissue samples): C (>=5% of tumors above the cutoff, but <20%) | Target coverage: over-expression category of source gene, BRCA (source genes (mRNA) [1]; Breast cancer (N = 1104), cutoff more than 2-fold above highest 75% percentile of high and medium risk normal tissue samples): C (>=5% of tumors above the cutoff, but <20%) | Target coverage: over-expression category of source gene, ESCA (source genes (mRNA) [1]; Esophageal cancer (N = 185), cutoff more than 2-fold above highest 75% percentile of normal tissue samples): C (>=5% of tumors above the cutoff, but <20%) | Target coverage: over-expression category of source gene, GBM (source genes (mRNA) [1]; Glioblastoma multiforme (N = 169), cutoff more than 2-fold above highest 75% percentile of normal tissue samples): C (>=5% of tumors above the cutoff, but <20%) | Target coverage: over-expression category of source gene, LUAD (source genes (mRNA) [1]; Lung adenocarcinoma (N = 517), cutoff more than 2-fold above highest 75% percentile of normal tissue samples): C (>=5% of tumors above the cutoff, but <20%) | Target coverage: over-expression category of source gene, LUSC (source genes (mRNA) [1]; Lung squamous cell carcinoma (N = 503), cutoff more than 2-fold above highest 75% percentile of normal tissue samples): C (>=5% of tumors above the cutoff, but <20%) | Target coverage: over-expression category of source gene, OV (source genes (mRNA) [1]; Ovarian serous cystadenocarcinoma (N = 309), cutoff more than 2-fold above highest 75% percentile of normal tissue samples): B (>= 20% of tumors above the cutoff, but <50%) | Target coverage: over-expression category of source gene, PAAD (source genes (mRNA) [1]; Pancreatic ductal adenocarcinoma (N = 179), cutoff more than 2-fold above highest 75% percentile of normal tissue samples): C (>=5% of tumors above the cutoff, but <20%) | Target coverage: over-expression category of source gene, SKCM (source genes (mRNA) [1]; Skin cutaneous melanoma (N = 473), cutoff more than 2-fold above highest 75% percentile of normal tissue samples): C (>=5% of tumors above the cutoff, but <20%) | Target coverage: over-expression category of source gene, STAD (source genes (mRNA) [1]; Stomach adenocarcinoma (N = 415), cutoff more than 2-fold above highest 75% percentile of normal tissue samples): C (>=5% of tumors above the cutoff, but <20%) | Expression score BRCA (source genes (mRNA) [2]): + | Expression score CLL (source genes (mRNA) [2]): + | Expression score OSCAR (source genes (mRNA) [2]): + | Expression score GBC_CCC (source genes (mRNA) [2]): + | Expression score NSCLC (source genes (mRNA) [2]): + | Expression score PC (source genes (mRNA) [2]): + | Presentation score BRCA (HLA-A*02; HLA-A*02 peptides, breast cancer (N = 17) vs panel of normal tissues (N = 262)): ++++ | Presentation score CLL (HLA-A*02; HLA-A*02 peptides, chronic lymphocytic leukemia (N = 17) vs panel of normal tissues (N = 262)): ++++ | Presentation score GBC_CCC (HLA-A*02; HLA-A*02 peptides, gallbladder adenocarcinoma and cholangiocarcinoma (N = 6) vs panel of normal tissues (N = 262)): ++++ | Presentation score NSCLC (HLA-A*02; HLA-A*02 peptides): ++++ | Peptide Presentation on cancer entities (HLA-A*02; [3]): NSCLC, CLL, BRCA, GBC_CCC | Peptide Presentation on cancer entities (HLA-A*02; Table 13B, presentation on additional cancer entities): OSCAR, GBC_CCC, HNSCC

17: peptide found in KMT2A (gene looked up) (AVFPDDMPTL; listed as Homo sapiens) [compound 17]
Target coverage: over-expression category of source gene, LAML (source genes (mRNA) [1]; Acute Myeloid Leukemia (N = 173), cutoff more than 2-fold above highest 75% percentile of normal tissue samples): A (>=50% of tumors above the cutoff) | Expression score CLL (source genes (mRNA) [2]): + | Presentation score OSCAR (HLA-A*02; HLA-A*02 peptides, esophageal cancer, including cancer of the gastric-esophageal junction (N = 17) vs panel of normal tissues (N = 262)): ++++ | Presentation score GC (HLA-A*02; HLA-A*02 peptides, gastric cancer (N = 29) vs panel of normal tissues (N = 262)): ++++ | Presentation score NHL (HLA-A*02; HLA-A*02 peptides): ++++ | Presentation score NSCLC (HLA-A*02; HLA-A*02 peptides): ++++ | Presentation score OC (HLA-A*02; HLA-A*02 peptides): ++++ | Peptide Presentation on cancer entities (HLA-A*02; [3]): GC, NSCLC, OSCAR, OC, NHL
